The list shows only some results of the screen, not a fair sample: it gathers tests that were run many times, whatever their T/C, doses with no T/C, and many T/C values between a quarter and a half above the control. Further doses and runs are listed elsewhere. T/C gives the treated animals as a percentage of the vehicle group. Some doses have a count of surviving animals in place of a T/C: the source holds a T/C of zero for them, seemingly a mark for toxic or unscored doses. Some doses without a T/C left all or most animals alive at the check, yet need not have been tolerated: the source hardly ever lists a survival T/C far under the control, and the zero likely stands for such cases as well. Counts of survivors are from the toxicity check (mostly the fifth day) where no day follows; animals may have died later. Schedule codes are those of the source, read here as Q, the interval in days (D) or hours (H), X, the number of doses. Some schedule codes hold Z or #, which are not explained here. For survival time, this PubChem deposit counts one and a half times the control or more as active, and values a quarter to a half above the control carry no call in these data; other NCI protocols may use other cut-offs.
System: L1210 leukemia ip in BDF1 mice, survival T/C
Assay: NCI In Vivo Anticancer Drug Screen. Data for tumor model L1210 Leukemia (intraperitoneal) in B6D2F1 (BDF1) mice
Details: T/C endpoint: mean survival time, higher T/C = longer survival
[1] = dose: 200.0 mg/kg/injection, schedule: Q04DX003 (ip), vehicle: saline with Tween-80
[2] = dose: 400.0 mg/kg/injection, schedule: Q01DX009 (ip), vehicle: saline
[3] = dose: 200.0 mg/kg/injection, schedule: Q01DX001 (ip), vehicle: saline
[4] = dose: 400.0 mg/kg/injection, schedule: Q01DX001 (ip), vehicle: saline

What does the source list for NOc1ccc([N+](=O)[O-])cc1[N+](=O)[O-]?
survivor count [1]: 0 of 6; survivor count (dose: 400.0 mg/kg/injection, schedule: Q04DX003 (ip), vehicle: saline with Tween-80): 0 of 6

Which results are given for CN(N)c1nc2c(N)ncnc2n1C1OC(CO)C(O)C1O (stereo not given)?
survivor count (dose: 100.0 mg/kg/injection, schedule: Q01DX005 (ip), vehicle: saline): 6 of 6; survivor count (dose: 200.0 mg/kg/injection, schedule: Q01DX005 (ip), vehicle: saline): 6 of 6

Which survivor count [2] does the source give for COc1cc(N)c2ncsc2c1 here?
Its survivor count is 3 of 3.

With Nc1nc(N)c2nc(CNc3ccc(S(=O)(=O)NC(CCC(=O)O)C(=O)O)cc3)cnc2n1 (stereo not given) as the molecule, how does the T/C (dose: 100.0 mg/kg/injection, schedule: Q01DX009 (ip), vehicle: Klucel (hydroxypropylcellulose) (HPC)) read?
The T/C was 127 % of control.

What does the source list for Cc1cccc(CSc2nc(N)nc3c2ncn3C2CC(O)C(CO)O2)n1 (stereo not given)?
T/C (dose: 200.0 mg/kg/injection, schedule: Q01DX009 (ip), vehicle: saline): 129 % of control; T/C [2]: 148 % of control

S=c1nn[nH]n1C1CCCCC1 was tested. Which survivor count [1] did it give?
The survivor count was 6 of 6.

With Cc1nc(C(N)=O)c2nc3c4ccccc4c4ccccc4c3nn12 as the molecule, how does the survivor count (dose: 100.0 mg/kg/injection, schedule: Q04DX002 (ip), vehicle: saline with Tween-80) read?
The survivor count was 3 of 3.

With CCOCC[P+](c1ccccc1)(c1ccccc1)c1ccccc1 as the molecule, how does the survivor count (dose: 20.0 mg/kg/injection, schedule: Q01DX015 (ip), vehicle: saline) read?
The survivor count was 5 of 6.

And the survivor count (dose: 40.0 mg/kg/injection, schedule: Q01DX015 (ip), vehicle: saline)?
Its survivor count is 0 of 6.

And the survivor count (dose: 50.0 mg/kg/injection, schedule: Q01DX001 (ip), vehicle: saline)?
Its survivor count is 0 of 4.

What about the survivor count (dose: 80.0 mg/kg/injection, schedule: Q01DX001 (ip), vehicle: saline) of the same molecule?
Its survivor count is 2 of 4.

What about the survivor count (dose: 80.0 mg/kg/injection, schedule: Q01DX015 (ip), vehicle: saline) of the same molecule?
Its survivor count is 0 of 6.

What about the survivor count (dose: 100.0 mg/kg/injection, schedule: Q01DX001 (ip), vehicle: saline) of the same molecule?
The survivor count was 0 of 4.

What about the survivor count [3] of the same molecule?
Its survivor count is 0 of 4.

And the survivor count [4]?
The survivor count was 0 of 4.

Cc1ccc2[nH]c(=S)[nH]c2c1 was tested. Which survivor count (dose: 400.0 mg/kg/injection, schedule: Q01DX001 (ip), vehicle: saline with Tween-80) did it give?
The survivor count was 0 of 3.

How did the survivor count (dose: 400.0 mg/kg/injection, schedule: Q01DX009 (ip), vehicle: saline with Tween-80) turn out when S=C(S)N1CCC(CC2CCN(C(=S)S)CC2)CC1 was run?
The survivor count was 2 of 6.

What does the source list for CN=C(NC)c1ccc(NC(=O)c2cc(C)cc(C(=O)Nc3ccc(C(=NC)NC)cc3)c2)cc1?
survivor count (dose: 60.0 mg/kg/injection, schedule: Q01DX Z (ip), vehicle: saline): 0 of 6; survivor count (dose: 120.0 mg/kg/injection, schedule: Q01DX Z (ip), vehicle: saline): 0 of 6

For CN(N=O)C(=O)Nc1c[nH]c(=O)[nH]c1=O, which T/C (dose: 5.0 mg/kg/injection, schedule: Q01DX Z (ip), vehicle: carboxymethylcellulose (CMC)) is on record?
The T/C was 131 % of control.

And the T/C (dose: 5.3 mg/kg/injection, schedule: Q01DX Z (ip), vehicle: saline)?
Its T/C is 134 % of control.

And the T/C (dose: 8.0 mg/kg/injection, schedule: Q01DX Z (ip), vehicle: saline)?
Its T/C is 132 % of control.

What about the T/C (dose: 10.0 mg/kg/injection, schedule: Q01DX Z (ip), vehicle: carboxymethylcellulose (CMC)) of the same molecule?
The T/C was 142 % of control.

What about the T/C (dose: 12.0 mg/kg/injection, schedule: Q01DX Z (ip), vehicle: saline) of the same molecule?
Its T/C is 136 % of control.

What about the T/C (dose: 18.0 mg/kg/injection, schedule: Q01DX Z (ip), vehicle: saline) of the same molecule?
Its T/C is 138 % of control.

What about the T/C (dose: 60.0 mg/kg/injection, schedule: Q01DX001 (ip), vehicle: saline) of the same molecule?
Its T/C is 132 % of control.

What about the survivor count (dose: 100.0 mg/kg/injection, schedule: Q01DX Z (ip), vehicle: carboxymethylcellulose (CMC)) of the same molecule?
The survivor count was 6 of 6.

And the T/C (dose: 120.0 mg/kg/injection, schedule: Q01DX001 (ip), vehicle: saline)?
Its T/C is 141 % of control.

And the survivor count (dose: 120.0 mg/kg/injection, schedule: Q01DX Z (ip), vehicle: carboxymethylcellulose (CMC))?
Its survivor count is 4 of 6.

With N/C(=N\O)c1cccc(/C(N)=N/O)c1 as the molecule, how does the survivor count [3] read?
Its survivor count is 2 of 6.

What about the survivor count [4] of the same molecule?
The survivor count was 0 of 6.

Which survivor count (dose: 25.0 mg/kg/injection, schedule: Q04DX003 (ip), vehicle: saline with Tween-80) does the source give for O=C(Nc1cccc(Cl)c1)Nc1ccccc1Cl here?
The survivor count was 6 of 6.

What about the survivor count (dose: 100.0 mg/kg/injection, schedule: Q04DX003 (ip), vehicle: saline with Tween-80) of the same molecule?
The survivor count was 6 of 6.

How did the survivor count (dose: 300.0 mg/kg/injection, schedule: Q01DX001 (ip), vehicle: other) turn out when CC(=O)Nc1ccc(S(=O)(=O)Cl)cc1 was run?
The survivor count was 1 of 6.

CN(C)N=Nc1c[nH]c(=O)[nH]c1=O was tested. Which survivor count (dose: 75.0 mg/kg/injection, schedule: Q01DX001 (ip), vehicle: saline) did it give?
The survivor count was 0 of 6.

And the survivor count (dose: 150.0 mg/kg/injection, schedule: Q01DX001 (ip), vehicle: saline)?
The survivor count was 0 of 6.

What about the survivor count (dose: 300.0 mg/kg/injection, schedule: Q01DX001 (ip), vehicle: saline) of the same molecule?
The survivor count was 0 of 6.

From PubChem BioAssay AID248 (DTP/NCI, 2004)
